# According to patent US11077194B2, “Nitric oxide releasing pharmaceutical compositions” (Novan, Inc., priority 2012, dated 2021):
# At least one compound was matched to its structure with a doubt left.
# System: oxazolone-induced ear swelling
# Assay: Oxazolone-induced ear swelling assay (model of allergic contact dermatitis)
# Format: in vivo, BALB/c mice
# Description: Groups of 5 BALB/c male mice weighing 22±2 g were used. The animals were sensitized by application of oxazolone (100 μL, 1.5% in acetone) to their preshaved abdominal surface. Seven days later, test substances (20 mg/ear) and vehicle (20 μL/ear) were applied topically to the anterior and posterior surfaces of the right ear 30 min before and 15 min after oxazolone (1%, 20 μL/ear) challenge. Ear swelling was measured with a Dyer model micrometer gauge at 24 hours after oxazolone challenge as an index of inflammation. Ear edema was calculated by subtracting the thickness of the left ear (normal control) from the right ear (treated ear). Percent inhibition was calculated according to the formula: (Ic−It)/Ic×100, where Ic and It refers to increase of ear thickness (mm) in control and treated mice, respectively. […]
# Test articles (0.2% and 2% Nitricil™ NVN1 Ointment) described in Example 6 were evaluated for possible anti-inflammatory activity in the oxazolone-induced ear swelling assay in BALB/c mice, a model of allergic contact dermatitis. […]
# The test system used was a 7-day oxazolone-induced ear swelling assay. […] Ear swelling was measured with a Dyer model micrometer gauge at 24 hours after oxazolone challenge as an index of inflammation. Ear edema was calculated by subtracting the thickness of the left ear (normal control) from the right ear (treated ear) (Table 18). […]
smiles,measurement,setting,value
C[C@@H]1C[C@H]2[C@@H]3CCC4=CC(=O)C=C[C@]4(C)[C@@]3(F)[C@@H](O)C[C@]2(C)[C@@]1(O)C(=O)CO [Dexamethasone],significance of inhibition of oxazolone-induced ear swelling,"Example 7 study, vs vehicle control A and placebo ointment",associated with significant inhibition
same,significance of inhibition of oxazolone-induced ear swelling,"Example 9 study, vs vehicle (acetone/ethanol 1/1) and placebo ointment",associated with significant inhibition
